According to the supplement of paper PMC6078165:
The reference is the same well before dosing, and untreated signal decays as well.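 Fibroblast labels name human fibroblasts: mostly primary ones from tissues such as uterus (C12385, HUF), lung (H6013), bone (Hs27A), adrenal (HADF) and skin (WS1), plus mammary HMF and breast cancer-associated Hs343T. The cancer cells are basal-like or mesenchymal-like triple-negative breast cancer lines. The paper calls a changed response a hit when it shifts by more than 3x the replicate standard deviation. The tissue of the other fibroblasts is not given here.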

Test system: Hs578T
Experiment: relative JC-1 red fluorescence (viability) vs pre-drug, coculture with fibroblast (fraction); higher = more viable cancer cells
Conditions: 10 µM
Experimental: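 JC-1 labelled TNBC cells cocultured 1:1 (1,500 cells each) with CellTrace Violet stained primary or stromal fibroblasts in 384-well plates in FluoroBrite medium, treated with one of 42 anticancer drugs at 0.1, 1, 10 or 100 uM. JC-1 red fluorescence (mitochondrial integrity in cancer cells only) was read by plate reader every 8 h for 72 h. Values are normalised to each well's pre-drug value. The stock of one drug was tenfold lower, so its dose labels may be too high.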

CC(C)(C#N)c1cc(Cn2cncn2)cc(C(C)(C)C#N)c1 [Anastrozole]
Conditions	relative JC-1 red fluorescence
8 h	0.9043
16 h	0.802
24 h	0.75
32 h	0.718
40 h	0.657
48 h	0.615
56 h	0.592
64 h	0.551
72 h	0.535

relative JC-1 red fluorescence
Conditions	8 h	16 h	24 h	32 h	40 h	48 h	56 h	64 h	72 h
coculture fibroblast: C12385	0.8562	0.727	0.6802	0.5966	0.5258	0.4843	0.4556	0.434	0.415
coculture fibroblast: H6013	0.867	0.768	0.727	0.706	0.679	0.678	0.66	0.659	0.633
coculture fibroblast: H6019	0.7821	0.691	0.64	0.552	0.506	0.472	0.437	0.41	0.384
coculture fibroblast: H6076	0.928	0.861	0.787	0.756	0.694	0.679	0.634	0.625	0.617
coculture fibroblast: H6231	0.9457	0.858	0.787	0.725	0.664	0.621	0.569	0.542	0.517
coculture fibroblast: HADF	0.916	0.796	0.729	0.675	0.625	0.597	0.558	0.539	0.502
coculture fibroblast: HCFa	0.8431	0.732	0.661	0.605	0.532	0.506	0.467	0.456	0.428
coculture fibroblast: HCPF	0.909	0.829	0.791	0.764	0.705	0.687	0.652	0.612	0.586
coculture fibroblast: HHSteC	0.888	0.769	0.729	0.684	0.637	0.606	0.576	0.5557	0.5257
coculture fibroblast: HMF	0.8994	0.841	0.7981	0.772	0.719	0.687	0.655	0.633	0.607
coculture fibroblast: HPFa	0.932	0.842	0.768	0.699	0.641	0.601	0.558	0.529	0.491
coculture fibroblast: HUF	0.8899	0.748	0.725	0.628	0.562	0.526	0.484	0.468	0.454
coculture fibroblast: Hs27A	0.907	0.85	0.771	0.714	0.651	0.63	0.592	0.568	0.522
coculture fibroblast: Hs343T	0.932	0.832	0.758	0.73	0.656	0.624	0.567	0.534	0.504
coculture fibroblast: WS1	0.812	0.704	0.628	0.539	0.47	0.436	0.397	0.373	0.353
